According to PubChem BioAssay AID2270 (NMMLSC, 2010):
Some of the results follow.

Experiment: hit retest on RPL19A-GFP reporter strain – cell-based, S. cerevisiae, flow cytometry, cherry picks, mother/daughter gates, confirmation (AID 2270)
Conditions: 3 h, at 10 µM, stronger effect = lower value, 100 = same GFP as DMSO wells
[1] = measured here: daughter cell gate
[2] = measured here: mother cell gate

| SMILES | GFP response vs DMSO [1] [%] | GFP response vs DMSO [2] [%] |
| --- | --- | --- |
| C[N+]1=C2C=CC=CC=C2SC12C([N+](=O)[O-])=CC([N+](=O)[O-])=C[C-]2[N+](=O)[O-] (stereo unspecified) | 102 | 95.2 |
| CCOP(=O)(Nc1cccc2ccccc12)OCC | 97.9 | 98.8 |
| O=P(Nc1nccs1)(c1ccccc1)c1nc2ccccc2s1 (stereo unspecified) | 98 | 99.2 |
